Measured values published in the supplement of paper PMC10849652.
Some of the results follow.

Amino acid sequences for entries named in this document (tags omitted). A change or cut given only in a name is not applied to a line headed by its entry.
UniProt Q7L099: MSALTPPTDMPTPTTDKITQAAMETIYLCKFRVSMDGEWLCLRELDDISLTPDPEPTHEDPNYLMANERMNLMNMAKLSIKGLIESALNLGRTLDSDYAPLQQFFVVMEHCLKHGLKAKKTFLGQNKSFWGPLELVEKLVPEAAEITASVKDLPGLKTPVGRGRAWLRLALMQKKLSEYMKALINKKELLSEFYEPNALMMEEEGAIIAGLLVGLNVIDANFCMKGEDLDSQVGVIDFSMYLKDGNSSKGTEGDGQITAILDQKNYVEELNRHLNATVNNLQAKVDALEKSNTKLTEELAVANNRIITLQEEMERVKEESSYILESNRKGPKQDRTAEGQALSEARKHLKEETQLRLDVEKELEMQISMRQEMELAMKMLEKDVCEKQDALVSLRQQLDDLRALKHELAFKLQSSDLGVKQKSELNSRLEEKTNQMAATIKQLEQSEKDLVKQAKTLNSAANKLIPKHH
UniProt P05387, whole entry, looked up: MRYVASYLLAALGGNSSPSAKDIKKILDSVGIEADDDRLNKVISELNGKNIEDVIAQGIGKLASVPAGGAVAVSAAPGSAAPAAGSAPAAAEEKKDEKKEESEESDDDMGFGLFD
UniProt Q96IZ7: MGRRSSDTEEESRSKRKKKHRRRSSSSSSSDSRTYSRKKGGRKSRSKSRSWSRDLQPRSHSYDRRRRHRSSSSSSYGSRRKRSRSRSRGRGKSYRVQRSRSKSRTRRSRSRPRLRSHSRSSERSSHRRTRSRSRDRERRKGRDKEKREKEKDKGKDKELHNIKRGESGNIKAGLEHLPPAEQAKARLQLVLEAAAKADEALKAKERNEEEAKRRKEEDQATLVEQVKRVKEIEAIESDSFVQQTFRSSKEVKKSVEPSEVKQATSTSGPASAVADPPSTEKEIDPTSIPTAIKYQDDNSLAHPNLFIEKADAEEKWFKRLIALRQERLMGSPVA
UniProt Q9Y3A4: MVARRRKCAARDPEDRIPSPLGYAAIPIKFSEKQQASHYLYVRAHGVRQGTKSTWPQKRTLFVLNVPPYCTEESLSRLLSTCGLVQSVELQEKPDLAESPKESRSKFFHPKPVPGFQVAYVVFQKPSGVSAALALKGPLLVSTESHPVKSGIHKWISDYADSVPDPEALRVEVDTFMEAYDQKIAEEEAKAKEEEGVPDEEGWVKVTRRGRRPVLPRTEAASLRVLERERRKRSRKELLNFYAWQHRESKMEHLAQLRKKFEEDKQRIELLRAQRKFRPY
UniProt P62070: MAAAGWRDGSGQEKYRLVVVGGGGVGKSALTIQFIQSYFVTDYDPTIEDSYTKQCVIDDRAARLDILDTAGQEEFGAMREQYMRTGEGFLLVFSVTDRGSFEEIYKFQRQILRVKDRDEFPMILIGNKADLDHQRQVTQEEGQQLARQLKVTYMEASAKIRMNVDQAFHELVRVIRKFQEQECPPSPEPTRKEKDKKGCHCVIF
UniProt Q7L523, whole entry, looked up: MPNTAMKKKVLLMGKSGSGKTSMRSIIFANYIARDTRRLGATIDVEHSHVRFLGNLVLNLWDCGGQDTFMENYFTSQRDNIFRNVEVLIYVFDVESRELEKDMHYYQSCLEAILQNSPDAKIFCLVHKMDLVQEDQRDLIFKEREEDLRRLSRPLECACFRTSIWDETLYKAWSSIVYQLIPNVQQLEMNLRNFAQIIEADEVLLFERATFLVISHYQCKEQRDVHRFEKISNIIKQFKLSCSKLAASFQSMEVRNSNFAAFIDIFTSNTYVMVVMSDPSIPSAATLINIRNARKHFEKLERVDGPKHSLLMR
UniProt O75582, whole entry, looked up: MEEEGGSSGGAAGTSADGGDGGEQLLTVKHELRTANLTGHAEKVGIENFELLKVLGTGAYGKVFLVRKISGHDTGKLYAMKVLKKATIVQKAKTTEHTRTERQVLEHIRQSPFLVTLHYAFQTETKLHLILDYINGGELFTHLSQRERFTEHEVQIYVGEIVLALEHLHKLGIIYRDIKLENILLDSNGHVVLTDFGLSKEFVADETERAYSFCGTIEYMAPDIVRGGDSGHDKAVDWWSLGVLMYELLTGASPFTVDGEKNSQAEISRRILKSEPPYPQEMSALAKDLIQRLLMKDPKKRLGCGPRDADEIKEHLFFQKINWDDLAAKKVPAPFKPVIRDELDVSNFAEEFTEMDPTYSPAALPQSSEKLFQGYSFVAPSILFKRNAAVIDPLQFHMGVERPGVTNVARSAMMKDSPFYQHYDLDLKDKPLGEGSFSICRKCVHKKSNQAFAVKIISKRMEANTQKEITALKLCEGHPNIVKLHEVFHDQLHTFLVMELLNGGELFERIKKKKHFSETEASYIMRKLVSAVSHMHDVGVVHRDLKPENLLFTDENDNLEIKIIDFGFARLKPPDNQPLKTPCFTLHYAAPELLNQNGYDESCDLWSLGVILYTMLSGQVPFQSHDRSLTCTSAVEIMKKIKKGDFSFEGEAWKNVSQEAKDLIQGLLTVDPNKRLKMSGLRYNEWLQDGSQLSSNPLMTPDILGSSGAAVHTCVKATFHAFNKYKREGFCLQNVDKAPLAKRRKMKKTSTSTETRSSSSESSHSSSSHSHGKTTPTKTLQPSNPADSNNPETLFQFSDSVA
UniProt Q7L4I2: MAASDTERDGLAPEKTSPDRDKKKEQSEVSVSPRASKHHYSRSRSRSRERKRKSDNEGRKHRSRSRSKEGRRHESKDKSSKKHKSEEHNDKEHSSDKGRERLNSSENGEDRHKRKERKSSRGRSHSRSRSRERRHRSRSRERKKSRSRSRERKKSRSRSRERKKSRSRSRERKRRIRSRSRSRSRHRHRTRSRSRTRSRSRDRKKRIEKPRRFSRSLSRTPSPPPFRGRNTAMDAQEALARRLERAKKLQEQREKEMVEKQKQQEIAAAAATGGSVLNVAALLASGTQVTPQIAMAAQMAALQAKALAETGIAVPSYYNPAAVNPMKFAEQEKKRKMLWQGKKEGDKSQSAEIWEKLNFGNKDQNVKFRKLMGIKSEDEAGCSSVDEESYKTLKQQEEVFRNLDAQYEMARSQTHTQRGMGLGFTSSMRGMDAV
UniProt Q9Y265, whole entry, looked up: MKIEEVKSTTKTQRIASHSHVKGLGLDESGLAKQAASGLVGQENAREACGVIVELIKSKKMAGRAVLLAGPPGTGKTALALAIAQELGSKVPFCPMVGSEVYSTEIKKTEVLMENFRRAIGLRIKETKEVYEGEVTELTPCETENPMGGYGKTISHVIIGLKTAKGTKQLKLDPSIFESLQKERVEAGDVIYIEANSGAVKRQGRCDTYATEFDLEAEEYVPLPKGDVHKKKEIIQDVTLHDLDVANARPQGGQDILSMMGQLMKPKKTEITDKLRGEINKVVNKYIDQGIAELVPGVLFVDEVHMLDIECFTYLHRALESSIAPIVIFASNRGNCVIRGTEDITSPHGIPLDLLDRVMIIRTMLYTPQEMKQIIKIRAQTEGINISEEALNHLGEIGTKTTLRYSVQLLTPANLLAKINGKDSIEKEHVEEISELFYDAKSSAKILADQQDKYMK
UniProt P29034: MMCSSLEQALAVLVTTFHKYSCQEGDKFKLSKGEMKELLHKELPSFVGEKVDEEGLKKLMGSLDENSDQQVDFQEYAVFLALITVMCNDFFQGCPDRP
UniProt Q9NQC3: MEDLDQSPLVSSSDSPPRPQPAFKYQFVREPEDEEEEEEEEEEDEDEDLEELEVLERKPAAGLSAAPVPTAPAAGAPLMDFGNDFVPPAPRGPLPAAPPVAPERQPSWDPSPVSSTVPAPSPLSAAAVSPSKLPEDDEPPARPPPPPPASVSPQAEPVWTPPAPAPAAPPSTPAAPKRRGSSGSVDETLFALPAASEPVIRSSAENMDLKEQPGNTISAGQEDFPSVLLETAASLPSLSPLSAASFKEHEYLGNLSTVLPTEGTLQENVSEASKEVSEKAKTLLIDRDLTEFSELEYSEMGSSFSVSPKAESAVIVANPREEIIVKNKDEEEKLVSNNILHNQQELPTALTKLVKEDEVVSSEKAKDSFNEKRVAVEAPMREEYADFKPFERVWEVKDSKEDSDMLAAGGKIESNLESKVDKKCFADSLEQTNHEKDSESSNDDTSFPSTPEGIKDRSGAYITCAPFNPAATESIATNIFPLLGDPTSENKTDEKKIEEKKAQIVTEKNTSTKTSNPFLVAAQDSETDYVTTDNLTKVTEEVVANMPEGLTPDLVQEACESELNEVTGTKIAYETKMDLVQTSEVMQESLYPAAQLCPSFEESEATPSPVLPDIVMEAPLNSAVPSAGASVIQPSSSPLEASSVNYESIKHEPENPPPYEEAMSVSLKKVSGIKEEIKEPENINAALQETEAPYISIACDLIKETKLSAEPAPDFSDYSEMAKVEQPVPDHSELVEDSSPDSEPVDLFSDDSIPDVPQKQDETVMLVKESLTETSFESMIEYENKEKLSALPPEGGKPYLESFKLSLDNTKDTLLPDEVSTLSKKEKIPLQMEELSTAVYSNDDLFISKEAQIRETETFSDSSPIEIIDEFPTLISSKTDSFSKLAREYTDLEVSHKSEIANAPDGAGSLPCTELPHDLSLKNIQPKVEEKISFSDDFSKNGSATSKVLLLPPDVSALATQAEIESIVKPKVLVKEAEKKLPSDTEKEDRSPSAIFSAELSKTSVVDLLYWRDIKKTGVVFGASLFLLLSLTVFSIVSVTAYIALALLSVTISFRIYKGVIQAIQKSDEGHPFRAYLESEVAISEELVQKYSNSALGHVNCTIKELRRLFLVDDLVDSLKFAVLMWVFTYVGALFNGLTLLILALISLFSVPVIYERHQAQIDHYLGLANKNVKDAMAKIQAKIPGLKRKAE

Key:
Test in all cases: log2 fold change, soluble protein after heating vs DMSO (PISA); higher = thermal stabilisation; K562 lysate, 10 uM; active = over 0.2 and 3.5 SD of the protein, either way, in both replicates (recomputed)
lapatinib = compound: CS(=O)(=O)CCNCc1ccc(-c2ccc3ncnc(Nc4ccc(OCc5cccc(F)c5)c(Cl)c4)c3c2)o1 [lapatinib]
In short: (§1)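 A 30 min treatment with 10 μM compound was applied to crude K562 extract at 1 mg/mL protein in PBS pH 7.4 with 1 mM MgCl2. Heating for 3 min spanned 48°C-58°C, after which aliquots were pooled, adjusted to 0.5% NP-40 at 4°C and spun at 21,000xg for 90 min. TMTpro 16plex LC-MS/MS of the supernatant, with channel sums equalised, gave values recorded as log-two fold change in thermal stability against solvent controls, from duplicates.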

pictilisib = compound: CS(=O)(=O)N1CCN(Cc2cc3nc(-c4cccc5[nH]ncc45)nc(N4CCOCC4)c3s2)CC1 [pictilisib]
In short: as §1

crizotinib = compound: C[C@@H](Oc1cc(-c2cnn(C3CCNCC3)c2)cnc1N)c1c(Cl)ccc(F)c1Cl [crizotinib]
In short: as §1

[1] = compound: C[C@H](C1=CC=C(C=C1)C(=O)NC2=C3C=CNC3=NC=C2)N
In short: as §1

duvelisib = compound: C[C@H](Nc1ncnc2nc[nH]c12)c1cc2cccc(Cl)c2c(=O)n1-c1ccccc1 [duvelisib]
In short: as §1

gandotinib = compound: Cc1cc(Nc2cc(CN3CCOCC3)c3nc(C)c(Cc4ccc(Cl)cc4F)n3n2)n[nH]1 [gandotinib]
In short: as §1

tozasertib = compound: Cc1cc(Nc2cc(N3CCN(C)CC3)nc(Sc3ccc(NC(=O)C4CC4)cc3)n2)n[nH]1 [tozasertib]
In short: as §1

doramapimod = compound: Cc1ccc(-n2nc(C(C)(C)C)cc2NC(=O)Nc2ccc(OCCN3CCOCC3)c3ccccc23)cc1 [doramapimod]
In short: as §1

bafetinib = compound: Cc1ccc(NC(=O)c2ccc(CN3CC[C@H](N(C)C)C3)c(C(F)(F)F)c2)cc1Nc1nccc(-c2cncnc2)n1 [bafetinib]
In short: as §1

[2] = compound: Cc1cccc(CC(=O)N2CCc3c2ccc(-c2cn(C)c4ncnc(N)c24)c3F)n1
In short: as §1

nilotinib = compound: Cc1cn(-c2cc(NC(=O)c3ccc(C)c(Nc4nccc(-c5cccnc5)n4)c3)cc(C(F)(F)F)c2)cn1 [nilotinib]
In short: as §1

[3] = compound: Cc1nc(Nc2n[nH]c3c2CN(C(=O)N[C@H](CN(C)C)c2ccccc2)C3(C)C)c2sccc2n1
In short: as §1

dasatinib = compound: Cc1nc(Nc2ncc(C(=O)Nc3c(C)cccc3Cl)s2)cc(N2CCN(CCO)CC2)n1 [dasatinib]
In short: as §1

[4] = compound: Cc1ncc(-c2ccnc(Nc3ccc(S(C)(=O)=O)cc3)n2)n1C(C)C
In short: as §1

[5] = compound: Cn1cc(-c2ccc3c(c2)CCN3C(=O)Cc2cccc(C(F)(F)F)c2)c2c(N)ncnc21
In short: as §1

quisinostat = compound: Cn1cc(CNCC2CCN(c3ncc(C(=O)NO)cn3)CC2)c2ccccc21 [quisinostat]
In short: as §1

tipifarnib = compound: Cn1cncc1[C@@](N)(c1ccc(Cl)cc1)c1ccc2c(c1)c(-c1cccc(Cl)c1)cc(=O)n2C [tipifarnib]
In short: as §1

[6] = compound: NC(=O)Nc1cc(-c2cccc(F)c2)sc1C(=O)N[C@H]1CCCNC1
In short: as §1

[7] = compound: NC(=O)c1cnc(N[C@@H]2CCCC[C@@H]2N)nc1Nc1cccc(-n2nccn2)c1
In short: as §1

[8] = compound: NC1(c2ccc(-c3nc4ccn5c(=O)[nH]nc5c4cc3-c3ccccc3)cc2)CCC1
In short: as §1

Measured: log2 fold change

RPS17 (UniProt P08708)
inactive: lapatinib -0.005 | pictilisib 0.002 | crizotinib 0.003 | [1] 0.146 | duvelisib 0.007 | gandotinib -0.06 | tozasertib -0.016 | doramapimod -0.005 | bafetinib 0.05 | [2] -0.086 | nilotinib 0.049 | [3] -0.014 | dasatinib -0.008 | [4] -0.003 | [5] -0.009 | quisinostat 0.012 | tipifarnib 0.041 | [6] -0.002 | [7] -0.028 | [8] 0.025

RPS5 (UniProt P46782)
inactive: lapatinib -0.009 | pictilisib -0.003 | crizotinib 0.005 | [1] 0.059 | duvelisib -0.02 | gandotinib -0.02 | tozasertib -0.064 | doramapimod -0.037 | bafetinib 0.022 | [2] -0.048 | nilotinib 0.01 | [3] 0.002 | dasatinib -0.03 | [4] -0.002 | [5] -0.012 | quisinostat 0.067 | tipifarnib 0.038 | [6] 0.013 | [7] -0.049 | [8] 0.009

RPS7 (UniProt P62081)
inactive: lapatinib 0.025 | pictilisib 0.057 | crizotinib 0.055 | [1] 0.207 | duvelisib 0.019 | gandotinib -0.089 | tozasertib -0.027 | doramapimod -0.089 | bafetinib 0.092 | [2] -0.116 | nilotinib 0.014 | [3] 0.011 | dasatinib 0.015 | [4] 0.028 | [5] 0.012 | quisinostat 0.117 | tipifarnib -0.01 | [6] -0.01 | [7] -0.021 | [8] -0.008

RPS21 (UniProt P63220)
inactive: lapatinib -0.027 | pictilisib 0.031 | crizotinib 0.006 | [1] 0.003 | duvelisib -0.037 | gandotinib -0.007 | tozasertib 0.018 | doramapimod 0.029 | bafetinib -0.02 | [2] 0.014 | nilotinib -0.014 | [3] -0.018 | dasatinib -0.046 | [4] 0 | [5] -0.029 | quisinostat 0.003 | tipifarnib 0.038 | [6] -0.076 | [7] -0.006 | [8] 0.027

RUFY3 isoform 2 (UniProt Q7L099)
inactive: lapatinib -0.117 | pictilisib -0.032 | crizotinib 0.068 | [1] 0.409 | duvelisib 0.04 | gandotinib -0.106 | doramapimod -0.216 | bafetinib -0.064 | [2] -0.062 | dasatinib 0.038 | [5] -0.013 | quisinostat -0.087 | [6] 0.189 | [7] 0.329 | [8] -0.059

RPS15A (UniProt P62244)
inactive: lapatinib -0.008 | pictilisib -0.004 | crizotinib -0.021 | [1] 0.08 | duvelisib 0.015 | gandotinib -0.026 | tozasertib 0.006 | doramapimod 0.014 | bafetinib 0.005 | [2] -0.003 | nilotinib 0.01 | [3] 0.004 | dasatinib 0.042 | [4] -0.03 | [5] -0.003 | quisinostat 0.011 | tipifarnib 0.006 | [6] 0.003 | [7] 0.016 | [8] 0.021

RPLP2 (UniProt P05387)
inactive: lapatinib 0.026 | pictilisib -0.014 | crizotinib -0.013 | [1] 0.028 | duvelisib -0.01 | gandotinib -0.02 | tozasertib 0.003 | doramapimod 0.006 | bafetinib -0.083 | [2] -0.02 | nilotinib 0 | [3] 0.035 | dasatinib 0.017 | [4] 0.012 | [5] -0.03 | quisinostat 0.004 | tipifarnib 0.026 | [6] -0.01 | [7] -0.049 | [8] 0.008

RSRC1 (UniProt Q96IZ7)
inactive: lapatinib -0.021 | pictilisib -0.006 | crizotinib 0.059 | [1] -0.038 | duvelisib 0.049 | gandotinib 0 | tozasertib 0.022 | doramapimod -0.006 | bafetinib -0.02 | [2] 0.006 | nilotinib -0.014 | [3] -0.06 | dasatinib 0.011 | [4] 0.031 | [5] 0.006 | quisinostat 0.03 | tipifarnib 0.024 | [6] -0.045 | [7] -0.007 | [8] 0.043

RRP7A (UniProt Q9Y3A4)
inactive: lapatinib -0.104 | pictilisib -0.058 | crizotinib -0.015 | [1] 0.001 | duvelisib 0.077 | gandotinib 0.067 | tozasertib -0.066 | doramapimod -0.052 | bafetinib 0.032 | [2] 0.046 | dasatinib -0.094 | [5] -0.054 | quisinostat 0.064 | [6] 0.089 | [7] -0.054 | [8] 0.007

RRAS2 (UniProt P62070)
inactive: lapatinib -0.076 | pictilisib -0.014 | crizotinib 0.029 | [1] 0.067 | duvelisib 0.039 | gandotinib 0.05 | tozasertib -0.012 | doramapimod 0.025 | bafetinib -0.045 | [2] -0.021 | nilotinib -0.063 | [3] 0.093 | dasatinib 0.004 | [4] 0.082 | [5] -0.055 | quisinostat 0.001 | tipifarnib 0.009 | [6] 0.013 | [7] 0.02 | [8] -0.048

RRAGA (UniProt Q7L523)
inactive: lapatinib 0 | pictilisib -0.06 | crizotinib -0.084 | [1] 0.075 | duvelisib 0.063 | gandotinib -0.035 | tozasertib -0.033 | doramapimod -0.058 | bafetinib -0.018 | [2] -0.02 | nilotinib -0.144 | [3] 0.032 | dasatinib -0.025 | [4] -0.065 | [5] 0.024 | quisinostat -0.045 | tipifarnib 0.109 | [6] 0.082 | [7] 0.033 | [8] -0.04

RPS6KA5 (UniProt O75582)
inactive: lapatinib -0.024 | crizotinib 0.028 | [1] 0.13 | duvelisib -0.011 | gandotinib -0.23 | tozasertib 0.106 | doramapimod -0.043 | [2] -0.032 | nilotinib -0.037 | [3] 0.004 | dasatinib -0.006 | [4] -0.079 | [5] 0.065 | quisinostat 0.062 | tipifarnib 0.042 | [6] 0.073 | [7] -0.086 | [8] -0.127

RSRC2 (UniProt Q7L4I2)
inactive: lapatinib 0.011 | pictilisib 0.022 | crizotinib 0.078 | [1] -0.027 | duvelisib 0.02 | gandotinib 0.116 | tozasertib -0.035 | doramapimod 0.119 | bafetinib 0.015 | [2] 0 | nilotinib 0.013 | [3] 0.006 | dasatinib 0.046 | [4] 0.012 | [5] 0 | quisinostat 0.017 | tipifarnib 0.001 | [6] -0.042 | [7] 0.038 | [8] 0.015

RUVBL1 (UniProt Q9Y265)
inactive: lapatinib -0.024 | pictilisib -0.004 | crizotinib 0.036 | [1] -0.01 | duvelisib 0.002 | gandotinib 0.016 | tozasertib -0.014 | doramapimod -0.038 | bafetinib 0.049 | [2] -0.012 | nilotinib 0 | [3] 0 | dasatinib 0.007 | [4] 0.001 | [5] 0.004 | quisinostat 0.067 | tipifarnib -0.002 | [6] -0.003 | [7] 0.001 | [8] 0.007

S100A2 (UniProt P29034)
inactive: lapatinib -0.105 | pictilisib -0.008 | crizotinib -0.533 | [1] -0.374 | gandotinib 1.59 | tozasertib -0.001 | doramapimod 0.094 | bafetinib -0.152 | [2] 0.463 | nilotinib 0.186 | [3] -0.215 | [4] -0.049 | quisinostat -0.658 | tipifarnib -0.273 | [6] -0.055 | [7] 0.069 | [8] -0.184

2 neighbouring entries out of the list so far:
RUVBL1 (UniProt Q9Y265)
inactive: lapatinib -0.024 | pictilisib -0.004 | crizotinib 0.036 | [1] -0.01 | duvelisib 0.002 | gandotinib 0.016 | tozasertib -0.014 | doramapimod -0.038 | bafetinib 0.049 | [2] -0.012 | nilotinib 0 | [3] 0 | dasatinib 0.007 | [4] 0.001 | [5] 0.004 | quisinostat 0.067 | tipifarnib -0.002 | [6] -0.003 | [7] 0.001 | [8] 0.007

S100A2 (UniProt P29034)
inactive: lapatinib -0.105 | pictilisib -0.008 | crizotinib -0.533 | [1] -0.374 | gandotinib 1.59 | tozasertib -0.001 | doramapimod 0.094 | bafetinib -0.152 | [2] 0.463 | nilotinib 0.186 | [3] -0.215 | [4] -0.049 | quisinostat -0.658 | tipifarnib -0.273 | [6] -0.055 | [7] 0.069 | [8] -0.184

Continued.

RPL7L1 (UniProt Q6DKI1)
inactive: lapatinib -0.036 | pictilisib 0.008 | crizotinib -0.043 | [1] -0.061 | duvelisib -0.011 | gandotinib -0.054 | tozasertib -0.042 | doramapimod 0.005 | bafetinib -0.096 | [2] 0.07 | nilotinib -0.002 | [3] 0.02 | dasatinib -0.018 | [4] 0.036 | [5] 0.003 | quisinostat -0.056 | tipifarnib -0.004 | [6] 0.01 | [7] 0.018 | [8] 0.002

RTN4 (UniProt Q9NQC3)
inactive: lapatinib -0.052 | pictilisib -0.018 | crizotinib -0.054 | [1] -0.162 | duvelisib 0 | gandotinib 0.091 | tozasertib -0.033 | doramapimod 0.003 | bafetinib -0.016 | [2] 0.06 | nilotinib 0.028 | [3] -0.034 | dasatinib -0.025 | [4] -0.013 | [5] -0.011 | quisinostat -0.117 | tipifarnib -0.035 | [6] 0.001 | [7] -0.028 | [8] 0.013
